No constants are given. Whether binding was seen depends on the method and setting. Binding seen in cells or lysates may run through a third protein. Binding can be weak; no strength is given.
T1: carbamylphosphate synthetase 1 (CPS1), endogenous in mouse liver mitochondria (mouse (endogenous in mouse liver mitochondria)) (UniProt Q8C196)
T1 sequence: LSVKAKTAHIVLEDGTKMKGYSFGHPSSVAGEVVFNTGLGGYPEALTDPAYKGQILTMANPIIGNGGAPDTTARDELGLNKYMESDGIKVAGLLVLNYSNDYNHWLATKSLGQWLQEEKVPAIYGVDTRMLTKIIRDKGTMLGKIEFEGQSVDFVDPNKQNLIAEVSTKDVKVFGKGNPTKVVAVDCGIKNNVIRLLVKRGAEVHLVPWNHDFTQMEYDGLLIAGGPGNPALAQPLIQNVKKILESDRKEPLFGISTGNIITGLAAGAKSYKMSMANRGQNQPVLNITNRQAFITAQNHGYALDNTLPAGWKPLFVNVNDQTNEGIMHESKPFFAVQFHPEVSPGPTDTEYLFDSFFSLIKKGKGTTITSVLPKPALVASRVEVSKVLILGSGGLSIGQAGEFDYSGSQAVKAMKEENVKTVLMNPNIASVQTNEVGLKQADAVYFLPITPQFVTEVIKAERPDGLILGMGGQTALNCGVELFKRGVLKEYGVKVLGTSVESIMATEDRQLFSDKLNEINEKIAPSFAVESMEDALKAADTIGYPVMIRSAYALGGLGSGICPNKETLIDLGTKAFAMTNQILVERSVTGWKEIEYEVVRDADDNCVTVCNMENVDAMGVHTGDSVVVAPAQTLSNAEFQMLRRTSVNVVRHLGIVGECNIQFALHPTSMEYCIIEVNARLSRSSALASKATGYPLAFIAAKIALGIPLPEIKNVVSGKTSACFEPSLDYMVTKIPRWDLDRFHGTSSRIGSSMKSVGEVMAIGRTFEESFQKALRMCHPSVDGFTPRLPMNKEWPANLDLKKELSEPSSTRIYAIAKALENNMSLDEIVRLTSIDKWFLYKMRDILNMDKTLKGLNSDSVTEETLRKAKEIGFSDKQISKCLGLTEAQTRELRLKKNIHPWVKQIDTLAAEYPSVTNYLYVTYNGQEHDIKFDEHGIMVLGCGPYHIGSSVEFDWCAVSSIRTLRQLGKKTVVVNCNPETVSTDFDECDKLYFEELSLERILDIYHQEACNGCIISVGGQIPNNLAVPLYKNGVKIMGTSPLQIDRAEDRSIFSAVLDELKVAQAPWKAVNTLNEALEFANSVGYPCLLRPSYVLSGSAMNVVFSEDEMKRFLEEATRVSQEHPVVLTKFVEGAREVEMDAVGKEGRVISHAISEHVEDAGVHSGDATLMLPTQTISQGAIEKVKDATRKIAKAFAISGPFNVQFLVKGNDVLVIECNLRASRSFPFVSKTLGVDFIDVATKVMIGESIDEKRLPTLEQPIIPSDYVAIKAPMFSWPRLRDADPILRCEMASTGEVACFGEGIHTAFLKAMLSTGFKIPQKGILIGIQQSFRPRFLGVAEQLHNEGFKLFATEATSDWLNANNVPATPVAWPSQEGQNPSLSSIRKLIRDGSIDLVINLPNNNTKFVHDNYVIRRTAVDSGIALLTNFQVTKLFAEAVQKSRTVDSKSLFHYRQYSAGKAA

T2: ornithine transcarbamylase (OTC), endogenous in mouse liver mitochondria (mouse (endogenous in mouse liver mitochondria)) (UniProt P11725)
T2 sequence: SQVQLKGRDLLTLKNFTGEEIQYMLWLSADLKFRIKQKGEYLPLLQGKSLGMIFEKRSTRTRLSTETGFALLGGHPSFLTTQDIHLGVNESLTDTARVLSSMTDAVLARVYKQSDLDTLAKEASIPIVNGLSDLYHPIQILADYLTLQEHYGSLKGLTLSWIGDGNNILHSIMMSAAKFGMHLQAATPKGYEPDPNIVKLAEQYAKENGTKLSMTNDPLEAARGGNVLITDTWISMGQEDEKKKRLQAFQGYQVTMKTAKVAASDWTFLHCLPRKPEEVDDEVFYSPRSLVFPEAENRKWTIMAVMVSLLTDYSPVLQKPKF


Experiments:
[1] = molecular target: T1, carbamylphosphate synthetase 1 (CPS1), endogenous in mouse liver mitochondria (mouse (endogenous in mouse liver mitochondria)); test: co-IP; mouse liver mitochondrial lysate (PBS, 2% CHAPS; 1 mg/ml protein for anti-OTC and anti-CPS1, 5 mg/ml for anti-NAGS) with magnetic beads cross-linked to antibodies against NAGS, CPS1 or OTC, 20°C for 10 min, five washes with PBS with 0.05% Triton X-100; immunoblot for NAGS and CPS1; non-specific IgG as negative control
[2] = molecular target: T2, ornithine transcarbamylase (OTC), endogenous in mouse liver mitochondria (mouse (endogenous in mouse liver mitochondria)); test: as above
[3] = molecular target: T1, carbamylphosphate synthetase 1 (CPS1), endogenous in mouse liver mitochondria (mouse (endogenous in mouse liver mitochondria)); test: co-IP; competition experiment: mitochondrial lysate (2 mg/ml protein) mixed 1:1 (v/v) with mVS, revVS or shVS, added to magnetic beads cross-linked to anti-CPS1 antibodies; immunoblot for NAGS, densitometry of NAGS-M bands
[4] = molecular target: N-acetylglutamate synthase (NAGS), endogenous in mouse liver mitochondria (mouse (endogenous in mouse liver mitochondria)); test: co-IP; mouse liver mitochondrial lysate (PBS, 2% CHAPS; 1 mg/ml protein for anti-OTC and anti-CPS1, 5 mg/ml for anti-NAGS) with magnetic beads cross-linked to antibodies against NAGS, CPS1 or OTC, 20°C for 10 min, five washes with PBS with 0.05% Triton X-100; immunoblot for NAGS and CPS1; non-specific IgG as negative control

Molecule | binding [1] | binding [2] | binding [3] | binding [4]
N-acetylglutamate synthase (NAGS), endogenous in mouse liver mitochondria (enzyme) | binds | binds | binds | 
carbamylphosphate synthetase 1 (CPS1), endogenous in mouse liver mitochondria (enzyme, UniProt Q8C196 39-1500) LSVKAKTAHIVLEDGTKMKGYSFGHPSSVAGEVVFNTGLGGYPEALTDPAYKGQILTMANPIIGNGGAPDTTARDELGLNKYMESDGIKVAGLLVLNYSNDYNHWLATKSLGQWLQEEKVPAIYGVDTRMLTKIIRDKGTMLGKIEFEGQSVDFVDPNKQNLIAEVSTKDVKVFGKGNPTKVVAVDCGIKNNVIRLLVKRGAEVHLVPWNHDFTQMEYDGLLIAGGPGNPALAQPLIQNVKKILESDRKEPLFGISTGNIITGLAAGAKSYKMSMANRGQNQPVLNITNRQAFITAQNHGYALDNTLPAGWKPLFVNVNDQTNEGIMHESKPFFAVQFHPEVSPGPTDTEYLFDSFFSLIKKGKGTTITSVLPKPALVASRVEVSKVLILGSGGLSIGQAGEFDYSGSQAVKAMKEENVKTVLMNPNIASVQTNEVGLKQADAVYFLPITPQFVTEVIKAERPDGLILGMGGQTALNCGVELFKRGVLKEYGVKVLGTSVESIMATEDRQLFSDKLNEINEKIAPSFAVESMEDALKAADTIGYPVMIRSAYALGGLGSGICPNKETLIDLGTKAFAMTNQILVERSVTGWKEIEYEVVRDADDNCVTVCNMENVDAMGVHTGDSVVVAPAQTLSNAEFQMLRRTSVNVVRHLGIVGECNIQFALHPTSMEYCIIEVNARLSRSSALASKATGYPLAFIAAKIALGIPLPEIKNVVSGKTSACFEPSLDYMVTKIPRWDLDRFHGTSSRIGSSMKSVGEVMAIGRTFEESFQKALRMCHPSVDGFTPRLPMNKEWPANLDLKKELSEPSSTRIYAIAKALENNMSLDEIVRLTSIDKWFLYKMRDILNMDKTLKGLNSDSVTEETLRKAKEIGFSDKQISKCLGLTEAQTRELRLKKNIHPWVKQIDTLAAEYPSVTNYLYVTYNGQEHDIKFDEHGIMVLGCGPYHIGSSVEFDWCAVSSIRTLRQLGKKTVVVNCNPETVSTDFDECDKLYFEELSLERILDIYHQEACNGCIISVGGQIPNNLAVPLYKNGVKIMGTSPLQIDRAEDRSIFSAVLDELKVAQAPWKAVNTLNEALEFANSVGYPCLLRPSYVLSGSAMNVVFSEDEMKRFLEEATRVSQEHPVVLTKFVEGAREVEMDAVGKEGRVISHAISEHVEDAGVHSGDATLMLPTQTISQGAIEKVKDATRKIAKAFAISGPFNVQFLVKGNDVLVIECNLRASRSFPFVSKTLGVDFIDVATKVMIGESIDEKRLPTLEQPIIPSDYVAIKAPMFSWPRLRDADPILRCEMASTGEVACFGEGIHTAFLKAMLSTGFKIPQKGILIGIQQSFRPRFLGVAEQLHNEGFKLFATEATSDWLNANNVPATPVAWPSQEGQNPSLSSIRKLIRDGSIDLVINLPNNNTKFVHDNYVIRRTAVDSGIALLTNFQVTKLFAEAVQKSRTVDSKSLFHYRQYSAGKAA |  |  |  | binds

From article PMC7860981, “Mitochondrial Enzymes of the Urea Cycle Cluster at the Inner Mitochondrial Membrane” (Frontiers in Physiology, 2020)
